Results as given in PubChem BioAssay AID504467 (National Center for Advancing Translational Sciences (NCATS), 2011).
Hit rate of the full screen: of about 330,000 compounds, about 7,700 (2.3%) were called active. The inconclusive results got no clear call from the source; some entries with a clear call stand among them for comparison. The call rests on the fitted dose curve; in most records, active means well fitted inhibition curve with a large enough effect; inconclusive means small, poorly fitted or top-dose-only effect, or effect the other way; inactive means flat fitted curve, though single readings scatter. Where the call is inconclusive, the potency comes from a doubtful curve fit.

Assay: qHTS screen for small molecules that inhibit ELG1-dependent DNA repair in human embryonic kidney (HEK293T) cells expressing luciferase-tagged ELG1; further: nearly all actives have a fitted effect of over 55% in size
Conditions: HEK293T ELG1-luciferase reporter, luminescence, 16 h, DNA damage induced by 5-fluorouridine; activity change, negative = inhibition: at 46.1 µM (top of the series)
Outline: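 DMSO vehicle served as the neutral condition. Each well held 2,000 cells given 5-fluorouridine plus compound; after 16 hr at 37 °C/5% CO2, ONE-Glo was added and luciferase measured 30 min later.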
On the % scale 0 is the no-effect control and ±100 the full control effect; potency means the concentration at half of the fitted maximal effect.

Row | Structure (SMILES) | activity change, negative = inhibition | Potency
1 | COc1ccccc1/C=C1\SC(=S)N(N2C(=O)CCCC2=O)C1=O | inactive: 14.3% | –
2 | Cc1ccc(C2C(C#N)=C(N)Oc3cc(N)ccc32)cc1 (stereo unspecified) | inactive: -15.5% | –
3 | O=S(=O)(NCc1ccccc1)c1ccc(NC(=S)NCc2ccco2)cc1 | – | inconclusive: 6.51 µM [inhibitor, partial curve, poor fit]
4 | O=[N+]([O-])c1cc(O)c2ncccc2c1 | – | active: 2.59 µM
5 | CC(=O)Nc1ccc(/C=N/Nc2nc3ccccc3[nH]2)cc1 | – | inconclusive: 6.51 µM [activator, single point]
6 | COc1ccc(C2Nc3ccccc3C(=O)N2Cc2ccco2)cc1CN1C(=O)c2ccccc2C1=O (stereo unspecified) | – | inconclusive: 18.3 µM [inhibitor, single point]
7 | O=C(OCCN1CCN(C2=NS(=O)(=O)c3ccccc32)CC1)c1cccc(Br)c1 | inactive: 1.3% | –
8 | Cc1cccc2cncc(OCc3nnc(SC(F)F)n3C)c12 | – | inconclusive: 32.6 µM [inhibitor, partial curve, poor fit]
9 | Cc1cc(C)nc(Nc2ncc(O)n2-c2ccc(Br)cc2)n1 | – | inconclusive: 25.9 µM [inhibitor, partial curve, poor fit]
10 | O=C(Cc1ccccc1Cl)Nc1cccc(S(=O)(=O)N2CCCCCC2)c1 | – | inconclusive: 29.1 µM [inhibitor, single point]
11 | COc1cccc(NC(=O)c2ccc(NC(=O)C(C)(C)C)cc2)c1 | – | inconclusive: 2.59 µM [activator, partial curve]
12 | CC(C)C(=O)Nc1cccc(-c2nc3ccccc3c(=O)o2)c1 | inactive: -1.89% | –
13 | O=C(O)c1ccc(N/N=C/c2cccc3cccnc23)cc1 | – | inconclusive: 0.92 µM [activator, full curve]
14 | COc1ccccc1C(=O)Nc1cccc(NC(=O)c2ccccc2OC)n1 | – | inconclusive: 3.26 µM [inhibitor, partial curve, poor fit]
15 | CNc1nc(N)c([N+](=O)[O-])c(Nc2ccccc2OC)n1 | – | inconclusive: 29.1 µM [inhibitor, single point]
16 | CCOC(=O)c1c(C)[nH]c(C(=O)N/N=C/c2cc([N+](=O)[O-])ccc2O)c1C | inactive: -13.1% | –
17 | N#CCCN1CCN(C2=NC(=O)C(=C3CCCCC3)S2)CC1 | – | inconclusive: 16.4 µM [activator, partial curve]
18 | COc1ccc(-c2cc3cc(-c4cc(OC)c(OC)c(OC)c4)ccc3o2)cc1 | – | inconclusive: 20.6 µM [activator, single point]
19 | O=C1/C(=C/c2cccc(F)c2)Oc2cc(O)ccc21 | – | inconclusive: 16.4 µM [activator, partial curve, poor fit]
20 | N#CCCN1CCN(C(=S)c2ccc(-c3cc(Cl)ccc3Cl)o2)CC1 | inactive: -13.7% | –
21 | COc1ccc(-n2c(COc3ccc(Cl)cc3)nnc2SCc2ccc(C#N)cc2)cc1 | – | inconclusive: 29.1 µM [inhibitor, single point]
22 | CN(C)c1ccc(-c2ccncc2)cc1 | – | inconclusive: 8.2 µM [activator, partial curve]
23 | CSc1ccccc1C(=O)NCCCOC(C)C | inactive: 1.7% | –

Row | Structure (SMILES) | activity change, negative = inhibition | Potency
24 | CCn1c(N2CCN(CC(=O)c3c[nH]c4ccccc34)CC2)nc2c1c(=O)[nH]c(=O)n2C | inactive: 0% | –
25 | COc1ccc(N2C(=O)N3[C@H](c4ccc(Cl)cc4)[C@@H]4C(=O)N(C5CCCCC5)C(=O)[C@@H]4[C@]3(C)C2=O)cc1 | inactive: 5.39% | –
26 | S=c1[nH]nc(CSCc2ccccc2Cl)n1C1CCCCC1 | – | inconclusive: 20.6 µM [inhibitor, single point]
27 | COc1ccc(CNC(=O)c2cccc(C)c2[N+](=O)[O-])cc1 | inactive: 9.16% | –
28 | COc1ccc(N2CCN(CCNC(=O)Nc3cc(Cl)ccc3OC)CC2)cc1 | inactive: 9.15% | –
29 | COc1ccc(S(=O)(=O)Nc2ccc3c(c2)C(=O)N([C@H](C)CO)C[C@H](C)[C@@H](CN(C)S(C)(=O)=O)O3)cc1 | – | inconclusive: 32.6 µM [activator, partial curve, poor fit]
30 | COc1ccc(Cc2nc3ccc(C(=O)N(C)CC4COCCO4)cc3o2)cc1 (stereo unspecified) | – | inconclusive: 9.2 µM [activator, partial curve]
31 | CCNc1nc(NCC)nc(N(C)N)n1 | inactive: -1.84% | –
32 | Cc1ccc(Nc2nnc(SCc3cc(=O)n4ccsc4n3)s2)c(C)c1 | inactive: -10.5% | –
33 | COCCCNC(=O)COc1cc2c(c3oc(=O)c(C)c(C)c13)CCC(C)(C)O2 | inactive: -0.102% | –
34 | Cc1csc(NC(=O)CSc2nccn2C)n1 | – | inconclusive: 23.1 µM [activator, partial curve]
35 | O=C(Nc1ccc2nc3ccccc3nc2c1)c1ccc(Br)cc1 | – | inconclusive: 8.2 µM [activator, partial curve, poor fit]
36 | Cc1ccc(NC(=O)c2c(C)nc3ccccn23)cc1C | – | inconclusive: 9.2 µM [activator, partial curve]
37 | CCOC(=O)N1CCN(C(=O)CCCOc2ccccc2)CC1 | – | inconclusive: 11.6 µM [activator, partial curve, poor fit]
38 | O=C(OCC(=O)N1CCCC1)c1c2c(nc3ccccc13)CCCCC2 | inactive: 2.7% | –
39 | Cc1ccc2c(=O)[nH]c(Nc3nc(C)cc(-c4ccccc4)n3)nc2c1 | – | inconclusive: 25.9 µM [activator, partial curve]
40 | COc1ccc2nc(NC(=O)CN3CCOCC3)sc2c1 | – | inconclusive: 20.6 µM [activator, partial curve]
41 | CN1CCC(=O)N(CCSc2ccccc2)CC1 | – | inconclusive: 11.6 µM [activator, partial curve]
42 | COc1ccc(NC(=O)c2sccc2C)cn1 | – | inconclusive: 16.4 µM [activator, partial curve]
43 | CCOc1cc(/C=N\NC(=O)C2C(=O)NCC2c2ccccc2)ccc1OC (stereo unspecified) | inactive: 10.4% | –
44 | CCOC(=O)N1CCC(NC(=O)c2ccc3c(c2)N=C(C)c2c(C)ccc(C)c2S3)CC1 | – | inconclusive: 3.26 µM [inhibitor, partial curve, poor fit]
45 | CC1(C)Cc2ccccc2-c2nc(NCCO)n(-c3ccccc3)c(=O)c21 | inactive: -6.91% | –
46 | Cc1ccc(COc2ccc(Br)cc2/C=N/O)cc1 | – | inconclusive: 8.2 µM [activator, partial curve]

Single entries from the list:
Entry of COc1ccc(N2C(=O)N3[C@H](c4ccc(Cl)cc4)[C@@H]4C(=O)N(C5CCCCC5)C(=O)[C@@H]4[C@]3(C)C2=O)cc1 under activity change, negative = inhibition: inactive: 5.39%
Entry of O=S(=O)(NCc1ccccc1)c1ccc(NC(=S)NCc2ccco2)cc1 under Potency: inconclusive: 6.51 µM [inhibitor, partial curve, poor fit]
